Source: US20150362496A1
No constants are given. Whether binding was seen depends on the method and setting. Some results given as binding are weak or reduced against the parent protein; the word gives no strength.

Sequences of proteins named here, by UniProt entry; tags and fusion partners are left off. Residues count along the entry.
UniProt P12107, residues 36-1806: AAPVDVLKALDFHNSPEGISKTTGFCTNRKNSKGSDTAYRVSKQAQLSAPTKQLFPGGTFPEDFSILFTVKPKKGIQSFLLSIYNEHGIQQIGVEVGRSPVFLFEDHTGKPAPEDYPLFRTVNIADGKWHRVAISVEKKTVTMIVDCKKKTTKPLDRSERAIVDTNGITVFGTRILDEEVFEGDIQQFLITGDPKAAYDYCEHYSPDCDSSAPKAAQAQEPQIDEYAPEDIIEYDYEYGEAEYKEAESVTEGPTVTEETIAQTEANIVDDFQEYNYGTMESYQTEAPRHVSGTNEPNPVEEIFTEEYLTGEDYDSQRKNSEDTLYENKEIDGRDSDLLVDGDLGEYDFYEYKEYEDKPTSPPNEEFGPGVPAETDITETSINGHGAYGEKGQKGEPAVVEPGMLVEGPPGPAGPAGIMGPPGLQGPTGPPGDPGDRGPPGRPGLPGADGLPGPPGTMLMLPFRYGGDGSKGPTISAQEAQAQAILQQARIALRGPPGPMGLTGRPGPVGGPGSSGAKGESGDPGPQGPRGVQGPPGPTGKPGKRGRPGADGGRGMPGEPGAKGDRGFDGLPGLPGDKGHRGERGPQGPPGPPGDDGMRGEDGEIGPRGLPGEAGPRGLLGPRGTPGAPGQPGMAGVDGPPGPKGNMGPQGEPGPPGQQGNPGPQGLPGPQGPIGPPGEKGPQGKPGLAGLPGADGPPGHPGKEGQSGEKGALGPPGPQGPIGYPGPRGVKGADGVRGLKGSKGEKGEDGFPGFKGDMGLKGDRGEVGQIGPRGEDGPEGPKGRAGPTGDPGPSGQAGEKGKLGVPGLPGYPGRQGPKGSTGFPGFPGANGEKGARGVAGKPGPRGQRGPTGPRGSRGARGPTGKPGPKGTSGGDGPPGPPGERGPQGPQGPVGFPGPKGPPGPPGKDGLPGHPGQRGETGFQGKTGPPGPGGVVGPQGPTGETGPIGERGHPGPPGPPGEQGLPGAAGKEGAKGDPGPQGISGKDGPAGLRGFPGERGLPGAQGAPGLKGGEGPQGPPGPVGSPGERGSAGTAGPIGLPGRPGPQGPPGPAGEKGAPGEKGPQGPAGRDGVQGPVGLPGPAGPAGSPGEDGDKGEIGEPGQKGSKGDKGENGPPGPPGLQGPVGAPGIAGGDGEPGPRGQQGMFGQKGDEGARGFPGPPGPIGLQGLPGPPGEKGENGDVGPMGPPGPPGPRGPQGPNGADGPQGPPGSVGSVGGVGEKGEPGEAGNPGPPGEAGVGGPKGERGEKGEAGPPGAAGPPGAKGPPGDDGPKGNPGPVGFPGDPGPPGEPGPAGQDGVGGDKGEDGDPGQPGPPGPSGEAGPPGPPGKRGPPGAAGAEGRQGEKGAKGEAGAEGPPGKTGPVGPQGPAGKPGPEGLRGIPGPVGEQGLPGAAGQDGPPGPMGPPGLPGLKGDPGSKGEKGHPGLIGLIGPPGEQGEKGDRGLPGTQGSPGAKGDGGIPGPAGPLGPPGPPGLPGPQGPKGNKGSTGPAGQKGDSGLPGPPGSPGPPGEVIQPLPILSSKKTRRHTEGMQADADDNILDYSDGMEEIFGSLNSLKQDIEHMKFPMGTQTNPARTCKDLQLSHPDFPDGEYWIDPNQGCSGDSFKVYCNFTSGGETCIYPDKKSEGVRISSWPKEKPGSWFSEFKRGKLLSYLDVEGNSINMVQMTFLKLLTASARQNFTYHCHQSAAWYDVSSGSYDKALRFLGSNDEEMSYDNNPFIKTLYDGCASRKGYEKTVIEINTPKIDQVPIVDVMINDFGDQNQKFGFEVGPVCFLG

Target: proCOL11A1 protein expressed in A204 rhabdomyosarcoma cells (human) (UniProt P12107)
Assay: immunocytochemistry on A204 cells

B1: 1E8.33 monoclonal antibody (antibody, V domains shown)
VH: EVQLQESGPELVKTGSSVKISCKASGYSFTGYYMHWVKQSQGKSLEWIGYINCYNGATSYNRNFKGKATFTVDTSSSTAYMQFNSLTSGDSAVYYCAIWDYEFHVMDYWGQRTSLTVSS
VL: ENVLTQSPAIMSASLGEKVTMSCRASSSVNYMYWYQQKSDASPKLWIYYTSNLAPGVPARFSGSGSGNSYSLTISSMEGEDADTYYCQQFTSSPWTFGGGTKLEIK
- binding: binds
